From patent US20060159669A1, “Novel uses of PPAR modulators and professional APCs manipulated by the same” (priority 2003, published 2006)
Entries after “also recorded” stand apart in the source; their conditions may differ. At least one compound was matched to its structure with a doubt left.

Tested on: iNKT cells
Assay: Expansion of iNKT cells by alpha-GalCer pulsed DC in autologous PBMC coculture
Type: cell-based, human
Details: alpha-GalCer loaded RSG treated IDC with autologous PBMC
Experimental: FACS analysis. Cell staining was performed using alpha-GalCer-loaded APC-labeled CD1d-tetramer (kindly provided by A. Herbelin) and FITC-, Cyc- or PE-conjugated mAbs. Labeled antibodies for flow cytometry included anti-CD161-Cyc, CD8-PE, CD25-PE, CD1a-PE, CD1d-PE, CD86-PE, CD83-PE, CD206-PE, CD3- FITC, CD36-FITC, CD80-FITC, CD209-FITC, HLA-DR-FITC and isotype-matched controls (BD PharMingen), anti-Vbetal 1-PE and anti-Valpha24-FITC (Immunotech). The cells were assessed for fluorescence intensity using EPICS Elite flow cytometer (Beckman Coulter) or with FACS Calibur cytometer (Beckton Dickinson). Data analysis was performed using WinMDI software (Joseph Trotter, The Scripps Research Institute, La Jolla, Calif.).
Expansion of iNKT cells. IDCs were treated with or without the inflammatory mixture as described previously and with 100ng/ml alpha-GalCer for 24 hr to obtain alpha-GalCer-loaded MDC or IDC, respectively. alpha-GalCer pulsed IDCs or MDCs (2×10^5 cells/ml) were cocultured with 2×10^6 monocyte depleted autologous PBMC for 5 days in 24 well plates. The expansion of iNKT cells was monitored by quantifying Valpha24+ Vbetal 1+ and Valpha24+ CD161+ cells by FACS analysis. The specificity of CD1d-restricted NKT cells was also verified by alpha-GalCer loaded APC-labelled CD1d tetramer staining.

CN(CCOc1ccc(CC2SC(=O)NC2=O)cc1)c1ccccn1 (stereo not shown) [RSG, Rosiglitazone]
iNKT cell expansion / frequency: increased frequency; also recorded: further enhanced
